Assay [1] concerns the target Complement C7 (human (endogenous in normal human serum)) (UniProt P10643). Nature of the assay: affinity purification with mass spectrometry; C7 captured from pooled NHS on resin-coupled anti-C7 antibody (pAb P7, mAb M7-WU4-15 or mAb M7-HB2H; Pierce Co-IP kit, overnight 4°C); eluate on non-reducing SDS-PAGE, 100 kDa and 75 kDa bands analysed by LC-MS.
Assay [2] addresses Clusterin (human (endogenous in normal human serum)) (UniProt P10909). The experiment in a line: affinity purification with mass spectrometry; clusterin captured from pooled NHS on resin-coupled anti-clusterin antibody (pAb PC or mAb MC-2D5; Pierce Co-IP kit); 75 kDa band analysed by LC-MS.

Protein sequences, listed by entry. Tags and fused reporters are not part of them. Lines headed by an entry give the natural chain unless they say otherwise; changes in a name come on top. Residues count along the entry.
UniProt P10643, residues 23-843: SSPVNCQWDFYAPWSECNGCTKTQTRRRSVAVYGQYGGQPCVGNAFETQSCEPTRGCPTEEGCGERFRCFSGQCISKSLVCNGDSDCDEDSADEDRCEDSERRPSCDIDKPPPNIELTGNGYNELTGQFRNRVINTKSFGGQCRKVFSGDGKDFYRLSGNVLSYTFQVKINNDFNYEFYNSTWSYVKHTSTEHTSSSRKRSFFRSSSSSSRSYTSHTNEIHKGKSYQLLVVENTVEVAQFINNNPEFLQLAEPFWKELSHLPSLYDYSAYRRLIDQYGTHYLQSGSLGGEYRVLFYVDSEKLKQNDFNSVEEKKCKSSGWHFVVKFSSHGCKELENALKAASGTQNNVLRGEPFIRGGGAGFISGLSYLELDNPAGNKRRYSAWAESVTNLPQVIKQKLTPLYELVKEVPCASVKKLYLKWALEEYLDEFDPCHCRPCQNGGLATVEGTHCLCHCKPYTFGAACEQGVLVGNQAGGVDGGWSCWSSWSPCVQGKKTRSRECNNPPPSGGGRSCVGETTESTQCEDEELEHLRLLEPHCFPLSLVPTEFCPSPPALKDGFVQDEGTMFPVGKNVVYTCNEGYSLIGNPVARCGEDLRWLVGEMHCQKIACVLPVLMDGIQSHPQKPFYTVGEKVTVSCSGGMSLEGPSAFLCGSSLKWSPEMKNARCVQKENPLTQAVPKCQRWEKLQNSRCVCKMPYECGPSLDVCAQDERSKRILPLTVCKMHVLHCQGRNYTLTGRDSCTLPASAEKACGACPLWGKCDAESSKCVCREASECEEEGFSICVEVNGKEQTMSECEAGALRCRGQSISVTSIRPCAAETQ
UniProt P10909: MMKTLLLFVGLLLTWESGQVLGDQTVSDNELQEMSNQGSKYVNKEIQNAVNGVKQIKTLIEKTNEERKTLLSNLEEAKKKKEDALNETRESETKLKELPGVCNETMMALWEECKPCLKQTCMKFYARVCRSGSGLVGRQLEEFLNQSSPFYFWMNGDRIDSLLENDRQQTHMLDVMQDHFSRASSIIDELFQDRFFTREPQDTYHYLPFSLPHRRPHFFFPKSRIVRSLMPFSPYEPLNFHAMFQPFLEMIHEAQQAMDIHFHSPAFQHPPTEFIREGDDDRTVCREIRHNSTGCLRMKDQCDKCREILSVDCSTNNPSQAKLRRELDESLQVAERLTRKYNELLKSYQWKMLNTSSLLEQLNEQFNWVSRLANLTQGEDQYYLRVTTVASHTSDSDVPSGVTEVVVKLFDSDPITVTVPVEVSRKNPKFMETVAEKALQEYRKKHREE

These are yes or no findings as the source states them, for the method shown. Binding seen in cells or lysates may run through a third protein. These calls come from enrichment with a bait or labelling near it, and not all partners need be listed.

Consider “Clusterin (from UniProt P10909 23-227; P10909 228-449)”, for which the binding entry in assay [1] was “binds”.

As for “Complement C7 (from UniProt P10643 23-843)”, in assay [2], the binding entry is given as “binds”.

For the origin of these results see publication PMC10850381.
